Source: the supplement of paper PMC3334620
In all, about 33,000 sequences were measured (“E-score (-0.5 to 0.5)”: median about -0.0059, highest 2% from about 0.26 on). This is one part of the list.

biological target: T1, Cin5 (UniProt P40917); experiment: PBM E-score (8-mer binding enrichment) (E-score (-0.5 to 0.5)); higher = stronger / more preferred TF binding; conditions: protein concentration: 100 nM; construct: GST-full length
T1 sequence: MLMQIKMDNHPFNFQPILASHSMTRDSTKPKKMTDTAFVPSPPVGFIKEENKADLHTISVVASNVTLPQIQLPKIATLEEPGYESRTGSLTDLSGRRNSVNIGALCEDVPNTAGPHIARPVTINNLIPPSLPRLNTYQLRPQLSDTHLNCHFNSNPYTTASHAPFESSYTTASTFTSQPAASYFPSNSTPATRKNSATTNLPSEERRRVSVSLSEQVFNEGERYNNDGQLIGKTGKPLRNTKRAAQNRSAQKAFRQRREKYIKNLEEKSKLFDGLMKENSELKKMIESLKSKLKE
In short: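 Bound GST-tagged yeast transcription factors, applied at about 100-200 nM to double-stranded universal all-10-mer Agilent arrays, were detected with fluorescent anti-GST. Scans were normalised with masliner. A modified Wilcoxon-Mann-Whitney statistic, the E-score, was assigned to each ungapped eight-base word pooled with its reverse complement by the Universal PBM Analysis Suite.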

Sequence | PBM E-score
AATGAGCG | 0.127
CGATATCC | 0.0948
GGATCTAC | -0.115
ATACAAGA | 0.0665
CGATGTAA | 0.102
AACTGACC | -0.149
AACAACCA | 0.231
GGTATGGA | 0.0264
CTCCATCC | -0.174
ACGCGTAG | 0.00813
CATCACGG | 0.025
CTAAGCAC | 0.183
GACTAGGC | -0.137
AAGGTGCT | 0.0441
CCCAATGA | 0.0295
TCGAAAGA | 0.101
CTCCCTTA | -0.217
CCCATGTC | -0.138
CCATCCTA | 0.0673
CGGGCCAC | -0.156
TAGAATCA | -0.0766
ATTAACCC | 0.1
ACTAGTGA | -0.158
CTAAATTA | 0.258
GCAGCCGC | -0.083

Individual results from the list:
PBM E-score, AACTGACC is entered as -0.149
PBM E-score, GGTATGGA is entered as 0.0264
PBM E-score, CCCATGTC is entered as -0.138
PBM E-score, AACAACCA is entered as 0.231
PBM E-score, CGATGTAA is entered as 0.102

Next part.

Sequence | PBM E-score
GGTCGCCA | -0.179
GCTTGGAC | -0.281
AGTAGCGC | 0.0546
AAAACTTG | 0.145
CACGGGAC | -0.118
GCCCAAGC | -0.0456
AATGCGAC | 0.109
GTTAGTTA | 0.225
AATAGATG | 0.23
CGTGCTGC | -0.204
ACACTCGA | 0.0854
GCCGAGCC | -0.112
CACTGTCC | -0.152
CATTTGAA | 0.0456
CTCTCCGC | -0.0751
AACTGATA | 0.112
CTGCAACC | -0.163
GTACTTTA | 0.18
CCCAGCCG | -0.234
TAGTGAAA | -0.0594
CCCTAGGC | -0.122
CGTACTAG | -0.0725
GGACCTTA | -0.0841
CTACCCGA | -0.0656
ATGACCGA | -0.0424

Sequence | PBM E-score
AGAGGCGG | -0.106
CGGGCACC | -0.278
AAACTCTG | 0.0517
ATTTTCTA | 0.172
GGTACCAA | -0.056
AAAAGTTC | 0.206
ATGCGTAA | 0.19
TATACCCA | -0.0483
CCCTTGCG | -0.282
AGTGTATC | 0.125
CGCAAGTC | -0.197
AGGGTCGG | -0.243
AGAGCACT | -0.127
CGGGTATA | 0.117
CCGCTGGC | -0.244
GAAACACC | 0.0555
CATAAGGG | 0.1
GCCCACTA | -0.0597
AGCCTATA | 0.0429
AGTCCCCG | -0.186
AATTGATC | 0.0081
AGTGAGAT | 0.111
ACATACGG | -0.0479
CTCCACCA | -0.244
GGTCTAAA | -0.061

Sequence | PBM E-score
TAAGACCA | 0.0532
CGAGCTGC | -0.01
ACTTTCTA | 0.0739
GAAACAAC | -0.0472
GGACCAGA | -0.197
AACGACCA | 0.0948
AGAACTGG | 0.0622
GGGGGCTA | -0.375
ATGCTTCA | 0.0559
GGAGGACA | -0.188
AATGGCAT | 0.32
AATACTGA | 0.121
AAGCGACC | 0.158
TACAGGGA | -0.188
CGTCGGAC | -0.191
AAGTCCAA | 0.0423
ATCGTACC | -0.121
CAGCTTAC | 0.312
CACGCAAA | 0.0157
AATTTCCA | 0.112
GGTAGGCA | -0.141
AAAGGTGC | -0.0891
GGGACTAA | -0.153
AGCTGCTC | 0.0232
CGAGTTGA | 0.0697

Rewritten in CSV form: part of the list above.
Sequence,PBM E-score
AACGACCA,0.0948
AAGTCCAA,0.0423
ATCGTACC,-0.121

Further results follow.

Sequence | PBM E-score
GCGCATCA | 0.0295
GCACGGAA | 0.111
AAAAGGGC | -0.137
AGGTAGAA | 0.0884
CTGGTCAA | -0.0686
CTAGACCA | -0.0913
CGGCCTGA | -0.22
AAGCGGCC | -0.25
ATTTAGAA | -0.064
CCGTACCG | -0.199
ATATTATA | 0.265
ATACACCG | 0.00374
ACGGAAGA | 0.111
AACCATTA | 0.201
AGGAGCTC | -0.255
CCGGTCTA | -0.302
CAGGTCTA | 0.0224
GAGGATGA | 0.0877
AGACCATC | 0.06
CACTCCTC | -0.104
CTACGACC | -0.0935
AGCTCCGG | -0.00362
GGCACAAA | -0.0593
GACAAAGA | 0.16
CAGTGTAA | 0.0741

At a glance, part of the list above.
Sequence | PBM E-score
AATAGATG | 0.23
CGTGCTGC | -0.204
ACACTCGA | 0.0854

Following part.

Sequence | PBM E-score
CACGAGCG | -0.127
GGACCCAC | -0.0783
CTGATACC | 0.0112
GACTCATA | -0.0292
AGAAATCG | 0.043
TCGCGTAA | 0.257
CGGCGCTC | -0.168
CTTCTCCC | -0.17
AGTCTCGA | -0.0861
GTCCAGCA | -0.0757
CGGTGCTC | -0.0427
ATAATACG | 0.213
AACGGAAA | 0.254
CAGGCCCG | -0.3
ACATACTG | 0.174
CACTCACG | 0.0681
CTTTTGAA | 0.0208
CCTAATCG | 0.155
CTTGGAGA | 0.00966
CGCGAAAA | 0.066
AGTTAAGC | 0.195
ACTAACAC | 0.111
AAGTCTCA | -0.163
CTAATGAA | 0.0931
AAAGATAG | -0.0374

Sequence | PBM E-score
AACGCATC | -0.0472
GAGACTAA | -0.0764
CACCCGCG | 0.199
CGGGCAGC | -0.0992
AGCCGTTA | -0.036
GCGGGTCA | 0.0915
GCCGCGGA | 0.123
CTAGTCAG | -0.0157
GGCCCTAA | -0.169
CGGATCCG | 0.112
TATAGGGA | -0.093
TATTCCCA | -0.0266
CAGAGTCA | -0.188
AGATGGTC | -0.00207
CGATCTTC | -0.0251
AACTACGG | -0.0389
CCCCGTTA | -0.0214
AACGCTCT | -0.216
AGGAGGTC | -0.322
CAGCCCAG | -0.276
CTTACAAG | -0.0954
AAATTTGA | 0.122
ACATACCT | 0.119
GCGATTCC | 0.122
GTACTGAC | 0.0117

Sequence | PBM E-score
AAATGCCG | 0.0621
CCGAACCA | -0.0203
TCGGAGCA | -0.149
ACCTGAGA | 0.0522
AGCCCGCA | -0.0668
AATGATTC | 0.161
CCCTCTAC | -0.274
ACCGACCC | -0.0538
GAGCCCGA | -0.138
ACCGCAGT | -0.0377
AACCACTG | 0.0301
AAAAGGAC | 0.0428
GAGATTGC | -0.103
AGCGTAGC | -0.11
GAGTATTA | 0.178
AATAGCGG | -0.0718
GCAGAGTA | 0.0019
CCTTCGTC | -0.106
CTCCGCCC | -0.173
CAAACGGC | -0.0907
ATTGAAGG | -0.11
CCTGTGAC | -0.111
CCGGCATC | -0.194
AAGCTGAC | 0.0725
CAACACCG | -0.0768

Sequence | PBM E-score
CTATAGTC | -0.063
ATTCCTCG | 0.123
AACCGTAT | -0.145
ACTTACAA | 0.163
AAGAGTAA | 0.0771
AGTGTCTA | -0.0127
CCGCCCCA | 0.109
ACTCCCCA | 0.106
CTTACTCC | 0.0384
GTGGCAAC | -0.0786
ATGGGTAA | 0.113
CCCTATGC | 0.0135
AGAAAGCG | 0.0282
ACTTCGGA | 0.163
CCTAAGGA | -0.0261
AGGCGACT | -0.206
GCTCGAAA | -0.0143
GCACGCCA | -0.27
ATTGTTCG | 0.131
